Results are given in words; binding and its absence hold for the method and conditions named. Binding can be weak; no strength is given.
Target: Itch WW region, GST-tagged (GST-WW) (mouse) (UniProt Q8C863)
Assay: pull-down; GST fusion of the WW region or its fragments (or C2) loaded on GSH-Sepharose 4B beads, incubated with Trx-HECT; 50 mM Tris pH 8.0, 100 mM NaCl, 1 mM DTT, 1 mM EDTA, 4 °C, 1 h; three washes; SDS-PAGE, Coomassie; both purified

Sequences of proteins named here, by UniProt entry; tags and fusion partners are left off. A change or cut given only in a name is not applied to a line headed by its entry.
UniProt Q8C863: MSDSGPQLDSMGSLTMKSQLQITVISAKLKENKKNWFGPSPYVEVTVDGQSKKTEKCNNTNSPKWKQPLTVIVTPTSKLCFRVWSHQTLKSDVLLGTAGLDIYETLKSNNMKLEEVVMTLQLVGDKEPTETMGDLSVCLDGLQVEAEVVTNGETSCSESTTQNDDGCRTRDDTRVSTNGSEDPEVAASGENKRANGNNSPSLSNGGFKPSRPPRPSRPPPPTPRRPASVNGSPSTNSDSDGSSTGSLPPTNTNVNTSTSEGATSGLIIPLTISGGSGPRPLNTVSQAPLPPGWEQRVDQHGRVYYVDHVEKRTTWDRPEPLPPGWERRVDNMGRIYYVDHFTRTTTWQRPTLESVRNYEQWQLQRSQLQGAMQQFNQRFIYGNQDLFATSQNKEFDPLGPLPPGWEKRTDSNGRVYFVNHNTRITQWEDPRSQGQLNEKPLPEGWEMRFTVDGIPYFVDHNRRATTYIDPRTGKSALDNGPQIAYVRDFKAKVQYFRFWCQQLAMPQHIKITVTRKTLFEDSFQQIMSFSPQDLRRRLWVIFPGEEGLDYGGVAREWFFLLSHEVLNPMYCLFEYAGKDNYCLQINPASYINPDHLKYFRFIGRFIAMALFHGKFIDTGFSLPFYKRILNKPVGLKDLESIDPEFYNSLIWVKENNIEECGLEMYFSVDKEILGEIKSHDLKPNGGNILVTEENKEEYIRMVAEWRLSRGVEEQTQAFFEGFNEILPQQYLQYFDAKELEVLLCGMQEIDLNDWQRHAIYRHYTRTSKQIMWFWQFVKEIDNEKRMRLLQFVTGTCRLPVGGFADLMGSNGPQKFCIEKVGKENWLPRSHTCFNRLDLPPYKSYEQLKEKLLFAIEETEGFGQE

Q: For “Itch HECT domain, Trx-tagged (Trx-HECT) (from UniProt Q8C863) (domain or fragment)”, which binding is on record?
A: binds

— paper PMC6639328
